Experimental data reported in patent US10288602B2, “Screening method, a kit, a method of treatment and a compound for use in a method of treatement” (ATROGI AB, priority 2013, dated 2019).
For at least one compound, name, drawing or mass did not settle the structure.

Experiments:
[1] = test system: PIP3; experiment: PIP3 immunofluorescence in permeabilised L6 cells; assay type: cell-based; details: FIG. 3
Experimental: PIP3 was visualized in permeabilised L6 cells (0.5% Triton X-100 in water, 15 min) blocked with 10% rat serum in TBS overnight at 4° C. Mouse anti-PIP3 conjugated to a biotinylated goat anti-mouse IgM diluted 1:100) was incubated for 1 h at 37° C., cells washed three times (10% rat serum in TBS), secondary antibody added (streptavidin-Alexa Fluor® 488 1:2000 in TBS, 30 min, 37° C.). Slides were mounted with ProLong® Gold antifade reagent (Invitrogen).

[2] = test system: L6 myotubes; experiment: Glucose uptake (3H-2-deoxy-glucose) in L6 myoblasts and L6 myotubes; assay type: cell-based; details: prolonged treatment (72 h), FIG. 15
Experimental: Glucose uptake was measured in CHO Glut 4 (Chinese Hamster Ovary cells transfected to overexpress GLUT4) and L6-myotubes grown in 12-well plates using ^3H-2-dexoy-glucose as previously described (Nevzorova et al. 2006, Dehvari et al. 2011, Nevzorova et al. 2002) with minor modifications. L6-cells were differentiated for 7-8 days before the experiment, serum-starved over night in media containing 0.5% fatty-acid free BSA and stimulated with test compounds for totally 2 h, unless otherwise stated. The test 3′ compounds used in the experiment were: N-[5-(4,5-dihydro-1H-imidazol-2yl)-2-hydroxy-5,6,7,8-tetrahydro naphthalen-1-yl] methanesulfonamide hydrobromide (A61603), noradrenaline (NA), insulin, oxymetazoline (oxy), and 5-(methylamino)-2-({(2R,3R,6S,8S,9R,11R)-3,9,11-trimethyl-8-[(S)-1-methyl-2-oxo-2-(l H-pyrrol-2-yl)ethyl]-1,7-dioxaspiro[5.5]undec-2-yl}methyl)-1,3-benzoxazole-4-carboxylic acid (also referred to as Calcimycin) (A23187).
Inhibitors were added 30 min before stimulation. […] Cells were lysed in 0.2 NaOH for 1 h in 60° C. and the radioactivity detected by liquid scintillation (scintillation buffer Emulsifier Safe, Perking Elmer and analysis is a Tri-Carb® 2800TR from Perkin Elmer).

| Structure (SMILES) | effect on insulin-increased PIP3 content [1] | effect on insulin- and isoproterenol mediated glucose uptake [2] |
| --- | --- | --- |
| O=c1cc(N2CCOCC2)oc2c(-c3ccccc3)cccc12 [LY294002] | inhibited | – |
| CO[C@H]1C[C@@H]2CC[C@@H](C)[C@@](O)(O2)C(=O)C(=O)N2CCCC[C@H]2C(=O)O[C@H]([C@H](C)C[C@@H]2CC[C@@H](O)[C@H](OC)C2)CC(=O)[C@H](C)/C=C(\C)[C@@H](O)[C@@H](OC)C(=O)[C@H](C)C[C@H](C)/C=C/C=C/C=C/1C [rapamycin] | – | abolished |
